Test results reported in PubChem BioAssay AID504467 (National Center for Advancing Translational Sciences (NCATS), 2011).
The campaign covered roughly 330,000 compounds. About 7,700 (2.3%) were called active. The shares of active, inactive and inconclusive entries below differ from those in the screen. Calls follow the shape of the dose curve; as a rule, active = well fitted inhibition curve with a large enough effect; inconclusive = small, poorly fitted or top-dose-only effect, or effect the other way; inactive = flat fitted curve, though single readings scatter. Where the call is inconclusive, the potency comes from a doubtful curve fit.

assay: qHTS screen for small molecules that inhibit ELG1-dependent DNA repair in human embryonic kidney (HEK293T) cells expressing luciferase-tagged ELG1; settings: HEK293T ELG1-luciferase reporter, luminescence, 16 h, DNA damage induced by 5-fluorouridine; series mostly up to 46.1 µM; also: nearly all actives have a fitted effect of over 55% in size
Summary of the method: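 Overnight (16 hr) co-exposure of 2,000 cells/well to 5-fluorouridine and compound at 37 °C preceded detection. Luciferase was quantified via ONE-Glo luminescence; loss of signal denotes inhibition.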
Potency is read from the fitted curve at half-maximal effect.

Row | Structure (SMILES) | Potency
1 | CCOC(=O)C1=C(c2ccccc2)ON(C)C1c1ccccc1 (stereo unspecified) | inactive
2 | COc1cc2c(=O)n(Cc3ccccc3)c(=O)n(CC(=O)NCCc3ccccc3)c2cc1OC | inactive
3 | COc1ccc(S(=O)(=O)N2CCCCCC2)cc1C(=O)N1CCCCC1 | inactive
4 | Cc1ccc(NC2=C(Cl)C(=O)OC2OC(=O)c2ccco2)cc1 (stereo unspecified) | inactive
5 | Cc1ccc(CCNC(=O)C2CCN(S(=O)(=O)c3ccc4nc5c(c(C(=O)O)c4c3)CCCC5)CC2)cc1 | inactive
6 | CCOC(CNC(=O)c1ccc2nc(N3CCC(C)CC3)sc2c1)OCC | inconclusive: 1.64 µM [activator, partial curve]
7 | COCCN(CCOC)c1nc(-c2ccccc2)nc2ccccc12 | active: 25.9 µM
8 | Cc1ccc2occ(/C=N/NC(N)=S)c(=O)c2c1 | inconclusive: 13 µM [activator, partial curve]
9 | CCN1CCN(C(=S)NC(=O)c2cccs2)CC1 | inconclusive: 18.3 µM [activator, partial curve, poor fit]
10 | COc1ccc(C(=O)/C=C/C(=O)N(CC(=O)NC2CCCCC2)Cc2ccc(F)cc2)c(O)c1 | inconclusive: 23.1 µM [inhibitor, single point]
11 | O=C(CC1SC(=Nc2cccc3ccccc23)N(Cc2ccccn2)C1=O)Nc1ccccc1Br (stereo unspecified) | inconclusive: 16.4 µM [inhibitor, single point]
12 | S=C(NCc1ccco1)Nc1ccc(Oc2ccc(Cl)cc2)cc1 | inconclusive: 16.4 µM [inhibitor, single point]
13 | O=C(COc1ccccc1)Nc1ccccc1Cl | inconclusive: 8.2 µM [activator, partial curve]
14 | c1ccc(COc2ccc(OCCOCCn3cncn3)cc2)cc1 | inconclusive: 8.2 µM [activator, partial curve]
15 | O=C(CCNC(=O)c1ccc(Br)cc1)Nc1nc2ccccc2[nH]1 | inconclusive: 18.3 µM [activator, single point]
16 | N/C(=N\OC(=O)CCCc1ccccc1)c1cccc([N+](=O)[O-])c1 | inactive
17 | CCN(CC)c1ccc(/C=C(\C#N)C(N)=S)cc1 | inactive
18 | COc1ccc(/C=C2\Oc3cc(OCC(=O)N4CC(O)C[C@H]4C(=O)O)ccc3C2=O)c(OC)c1OC (stereo partly specified) | inconclusive: 0.231 µM [activator, single point]
19 | CCCSc1nn2c(=O)c3ccccc3nc2s1 | inconclusive: 3.66 µM [activator, full curve]
20 | OCCc1ccc(O)c(-n2nc3ccccc3n2)c1 | inconclusive: 14.6 µM [activator, partial curve]
21 | Cc1nn(-c2ccccc2)c(C)c1NC(=O)COc1ccc(F)cc1Cl | inconclusive: 29.1 µM [inhibitor, single point]
22 | Cc1cc(C(=O)COC(=O)c2ccco2)c(C)n1Cc1ccco1 | inconclusive: 18.3 µM [activator, partial curve]
23 | Fc1ccccc1-c1nc(NCCCN2CCOCC2)c2ccccc2n1 | inconclusive: 25.9 µM [inhibitor, single point]

A draw from above in order of SMILES length, high to low.
Row | Structure (SMILES) | Potency
11 | O=C(CC1SC(=Nc2cccc3ccccc23)N(Cc2ccccn2)C1=O)Nc1ccccc1Br (stereo unspecified) | inconclusive: 16.4 µM [inhibitor, single point]
12 | S=C(NCc1ccco1)Nc1ccc(Oc2ccc(Cl)cc2)cc1 | inconclusive: 16.4 µM [inhibitor, single point]
1 | CCOC(=O)C1=C(c2ccccc2)ON(C)C1c1ccccc1 (stereo unspecified) | inactive

Further results follow:

Row | Structure (SMILES) | Potency
24 | O=C1COc2ccc(S(=O)(=O)N3CCCC3)cc2N1 | inactive
25 | Cc1cc(C)c(C#N)c(N2CCN(S(=O)(=O)Cc3ccccc3)CC2)n1 | inconclusive: 13 µM [inhibitor, partial curve]
26 | COc1n[nH]c(C(=O)Nc2cc(Cl)ccc2Cl)c1[N+](=O)[O-] | inconclusive: 29.1 µM [inhibitor, single point]
27 | COc1ccc(N(C(=O)c2ccc(S(=O)(=O)N3CCCC3)cc2)C2C=CS(=O)(=O)C2)cc1 (stereo unspecified) | inactive
28 | COC(=O)CCn1nnc(-c2ccc(C(C)C)cc2)n1 | inconclusive: 9.2 µM [activator, partial curve]
29 | Cc1ccc(-c2cnn(-c3cccc([N+](=O)[O-])c3)c2N)cc1 | inconclusive: 2.91 µM [activator, partial curve]
30 | Cc1[nH][nH]c(=O)c1C(c1ccc(F)cc1)c1c(C)[nH][nH]c1=O | inactive
31 | CCOc1ncccc1C(=O)Nc1ccc(C)c(S(=O)(=O)N2CCCCCC2)c1 | active: 20.6 µM
32 | COc1ccc(-c2csc(NC(=O)C3=NN(c4ccccc4)C(=O)CC3)n2)cc1 | inconclusive: 6.51 µM [inhibitor, single point]
33 | N#Cc1c(/N=C/c2cccs2)sc2c1CCCCC2 | inconclusive: 1.46 µM [activator, partial curve, poor fit]
34 | COC(=O)[C@@H]1CCCN1Cc1nc(Cc2ccccc2F)no1 | inactive
35 | CC(C)(C)c1ccc(C2CC2C(=O)N/N=C\c2cc3ccccc3nc2Cl)cc1 (stereo unspecified) | inactive
36 | Cc1ccc(-c2csc(NC(=O)c3ccno3)n2)cc1 | inconclusive: 25.9 µM [activator, partial curve]
37 | c1ccc(-c2nc(-c3ccco3)cs2)nc1 | inconclusive: 20.6 µM [activator, partial curve]
38 | COc1ccc(N2CCC(CNC(=S)Nc3c(C)cccc3C)C2)cc1 (stereo unspecified) | inconclusive: 32.6 µM [inhibitor, single point]
39 | Cc1ccc(/C=c2\sc3nc(-c4cccs4)nn3c2=O)o1 | inactive
40 | COC(=O)c1ccc(Cn2nnc3c(=O)[nH]c(C4CCCN(S(=O)(=O)c5ccccc5Cl)C4)nc32)cc1 (stereo unspecified) | inconclusive: 16.4 µM [inhibitor, single point]
41 | OCCNc1nc2ccccc2nc1NCCO | inactive
42 | COc1ccc(NC(=O)C(=O)c2cn(CC(=O)N3CCCC3)c3ccccc23)cc1 | inconclusive: 32.6 µM [activator, single point]
43 | CC(C)(C)OC(=O)N1CCC(c2c(C(=O)N3CCN(C(=O)c4ccco4)CC3)cnn2-c2ccc(F)cc2F)CC1 | inconclusive: 10.3 µM [inhibitor, partial curve, poor fit]
44 | COc1ccc(CC(=O)NNc2ncnc3c2cnn3-c2ccccc2)cc1 | inactive
45 | CCOC(=O)c1[nH]c(C)c(C(=O)OCC(=O)NCc2ccc(Cl)cc2)c1C | inactive
46 | CCc1ccc(-c2csc(NC(=O)C3=NN(c4ccccc4)C(=O)CC3)n2)cc1 | inconclusive: 13 µM [inhibitor, partial curve]
